Assay results reported in the supplement of paper PMC12282887.
Values are raw readings; no control value is given beside them.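 Maximum concentrations were near the MIC for antimicrobials, 500 µM for most other compounds, and as high as 1 mM for known inducer-like compounds. Deletion strains began with a tenfold smaller inoculum, and wells with growth under 10% of the overall median counted as non-growing.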

Test system: Escherichia coli BW25113
Assay: growth (OD600 area under curve, 8 h) (OD600 x h); higher = more growth
Method: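 E. coli BW25113 reporter strains (wild type, ΔmarA, ΔsoxS, Δrob, each carrying one of 8 lux reporter plasmids) were grown in 40 µl LB in 384-well plates at 37°C, 800 rpm, with each compound at 4 two-fold concentrations, in biological duplicates. Growth is the baseline-corrected OD600 area under the curve over 8 h (0-8 h WT, 1-9 h deletion strains).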

Cn1c(=O)c2c(ncn2C)n(C)c1=O [Caffeine]
growth
Conditions | reporter plasmid: EVC | reporter plasmid: acrABp | reporter plasmid: marRABp | reporter plasmid: micFp | reporter plasmid: ompFp | reporter plasmid: robp | reporter plasmid: soxSp | reporter plasmid: tolCp
24.3 µg/ml, genetic background: wild type | 2.75 | 3.1 | 3.32 | 3.14 | 2.88 | 3.167 | 2.88 | 3.21
24.3 µg/ml, genetic background: ΔmarA | 3.23 | 4.37 | 3.8 | 3.38 | 3.71 | 4.32 | 2.82 | 2.83
24.3 µg/ml, genetic background: Δrob | 3.04 | 2.97 | 3.39 | 3.09 | 2.65 | 2.84 | 2.93 | 3
24.3 µg/ml, genetic background: ΔsoxS | 3.19 | 3.01 | 3.12 | 2.61 | 3.18 | 3.18 | 3.32 | 3.17
48.5 µg/ml, genetic background: wild type | 2.73 | 3.09 | 3.316 | 3.228 | 3 | 3.36 | 3.01 | 3.25
48.5 µg/ml, genetic background: ΔmarA | 3.1 | 4.25 | 3.93 | 3.24 | 3.53 | 4.08 | 2.72 | 2.74
48.5 µg/ml, genetic background: Δrob | 2.79 | 2.79 | 3.36 | 3.09 | 2.73 | 2.75 | 2.78 | 2.85
48.5 µg/ml, genetic background: ΔsoxS | 3.14 | 2.91 | 3.07 | 2.54 | 3.182 | 3.13 | 3.11 | 3.12
97.1 µg/ml, genetic background: wild type | 2.44 | 2.9 | 3.22 | 2.88 | 3.02 | 3.212 | 2.77 | 2.81
97.1 µg/ml, genetic background: ΔmarA | 3.06 | 3.79 | 3.37 | 3.03 | 3.33 | 3.77 | 2.48 | 2.67
97.1 µg/ml, genetic background: Δrob | 2.68 | 2.79 | 3.3 | 2.72 | 2.76 | 2.8 | 2.29 | 2.65
97.1 µg/ml, genetic background: ΔsoxS | 2.86 | 2.73 | 3.03 | 2.42 | 3.04 | 3.27 | 3.02 | 2.63
194.2 µg/ml, genetic background: wild type | 2.26 | 2.59 | 2.73 | 2.4 | 2.46 | 2.9 | 2.48 | 2.64
194.2 µg/ml, genetic background: ΔmarA | 2.89 | 3.64 | 3.03 | 2.61 | 3.02 | 3.24 | 2 | 2.3
194.2 µg/ml, genetic background: Δrob | 2.47 | 2.31 | 2.93 | 2.62 | 2.41 | 2.25 | 2.35 | 2.62
194.2 µg/ml, genetic background: ΔsoxS | 2.8 | 2.3 | 2.53 | 1.92 | 2.62 | 2.58 | 2.34 | 2.79

N[C@@H](C(=O)N[C@@H]1C(=O)N2C(C(=O)O)=C(Cl)CS[C@H]12)c1ccccc1 [Cefaclor]
growth
Conditions | reporter plasmid: EVC | reporter plasmid: acrABp | reporter plasmid: marRABp | reporter plasmid: micFp | reporter plasmid: ompFp | reporter plasmid: robp | reporter plasmid: soxSp | reporter plasmid: tolCp
0.11 µg/ml, genetic background: wild type | 2.69 | 3.34 | 3.38 | 3.04 | 3.15 | 3.23 | 2.95 | 3.027
0.11 µg/ml, genetic background: ΔmarA | 3.21 | 3.88 | 3.76 | 3.11 | 3.55 | 3.77 | 2.91 | 3.05
0.11 µg/ml, genetic background: Δrob | 3.16 | 3.27 | 3.54 | 3 | 2.68 | 2.94 | 2.8 | 3.03
0.11 µg/ml, genetic background: ΔsoxS | 3.184 | 3.15 | 3.06 | 2.94 | 3.28 | 3.32 | 3.24 | 3.011
0.23 µg/ml, genetic background: wild type | 2.79 | 3.1 | 3.37 | 3.14 | 3.213 | 3.32 | 2.83 | 3.12
0.23 µg/ml, genetic background: ΔmarA | 3.17 | 3.95 | 3.79 | 3.11 | 3.43 | 3.87 | 2.81 | 2.95
0.23 µg/ml, genetic background: Δrob | 3.1 | 3.09 | 3.4 | 3.06 | 2.52 | 2.9 | 2.73 | 3.211
0.23 µg/ml, genetic background: ΔsoxS | 3.29 | 3.24 | 3.4 | 3.02 | 3.44 | 3.25 | 3.26 | 3.23
0.46 µg/ml, genetic background: wild type | 2.74 | 3.64 | 3.34 | 2.98 | 3.28 | 3.23 | 2.84 | 3
0.46 µg/ml, genetic background: ΔmarA | 2.96 | 3.78 | 2.13 | 3.01 | 3.34 | 3.67 | 2.92 | 1.94
0.46 µg/ml, genetic background: Δrob | 2.78 | 2.6 | 2.98 | 2.36 | 1.85 | 2.35 | 2.54 | 2.72
0.46 µg/ml, genetic background: ΔsoxS | 3.24 | 3.15 | 3.38 | 2.85 | 3.32 | 3.019 | 3.05 | 2.94
0.92 µg/ml, genetic background: wild type | -0.225 | -0.0218 | 0.0579 | -0.0127 | -0.0623 | 0.0599 | 0.099 | 0.139
0.92 µg/ml, genetic background: ΔmarA | -0.0168 | -0.00749 | 0.00416 | -0.00444 | -0.0365 | -0.028 | 0.00139 | -0.0548
0.92 µg/ml, genetic background: Δrob | 0.0876 | -0.0122 | 0.00608 | -0.0977 | -0.0607 | -0.0151 | -0.0164 | 0.0553
0.92 µg/ml, genetic background: ΔsoxS | 0.0437 | 0.0343 | 0.0313 | 0.0248 | 0.0456 | 0.033 | 0.00873 | 0.0555

Nc1ccn(C[C@@H](CO)OCP(=O)(O)O)c(=O)n1 [Cidofovir]
growth
Conditions | reporter plasmid: EVC | reporter plasmid: acrABp | reporter plasmid: marRABp | reporter plasmid: micFp | reporter plasmid: ompFp | reporter plasmid: robp | reporter plasmid: soxSp | reporter plasmid: tolCp
17.4 µg/ml, genetic background: wild type | 2.96 | 3.04 | 3.26 | 3.12 | 3.24 | 3.31 | 3.102 | 3.18
17.4 µg/ml, genetic background: ΔmarA | 3.11 | 4.27 | 3.85 | 3.15 | 3.45 | 3.69 | 2.78 | 2.98
17.4 µg/ml, genetic background: Δrob | 2.45 | 3.01 | 3.45 | 2.97 | 2.67 | 2.64 | 2.87 | 3.02
17.4 µg/ml, genetic background: ΔsoxS | 3.07 | 3.19 | 3.2 | 2.35 | 2.9 | 2.987 | 3.15 | 3
34.9 µg/ml, genetic background: wild type | 2.95 | 2.68 | 3.1 | 3.12 | 2.97 | 3.32 | 3.12 | 3.094
34.9 µg/ml, genetic background: ΔmarA | 3.04 | 4.21 | 4.04 | 3.33 | 3.49 | 3.69 | 2.79 | 2.96
34.9 µg/ml, genetic background: Δrob | 2.89 | 3.13 | 3.18 | 3.13 | 2.62 | 2.73 | 2.99 | 3.1
34.9 µg/ml, genetic background: ΔsoxS | 3.2 | 3.18 | 3.41 | 2.81 | 2.9 | 3.31 | 3.03 | 3.21
69.8 µg/ml, genetic background: wild type | 2.63 | 2.95 | 3.44 | 3.12 | 3.34 | 3.34 | 3.12 | 3.185
69.8 µg/ml, genetic background: ΔmarA | 3.25 | 4.22 | 4.08 | 3.26 | 3.58 | 3.91 | 2.83 | 3.05
69.8 µg/ml, genetic background: Δrob | 2.65 | 3.01 | 3.42 | 2.9 | 2.68 | 2.72 | 2.9 | 3.02
69.8 µg/ml, genetic background: ΔsoxS | 3.03 | 2.96 | 3.13 | 2.67 | 2.61 | 3.19 | 2.92 | 2.819
139.6 µg/ml, genetic background: wild type | 2.72 | 2.78 | 3.11 | 3.02 | 2.97 | 3.1 | 2.93 | 2.98
139.6 µg/ml, genetic background: ΔmarA | 3.14 | 4.03 | 3.73 | 3.29 | 3.5 | 4.01 | 2.84 | 2.93
139.6 µg/ml, genetic background: Δrob | 2.82 | 2.86 | 3.18 | 2.91 | 2.51 | 2.55 | 2.77 | 3.06
139.6 µg/ml, genetic background: ΔsoxS | 3.23 | 2.76 | 2.91 | 2.7 | 2.7 | 3.07 | 3.01 | 2.84
